By UniProt entry, the sequences of proteins in these tests, tags left out.
UniProt Q14686: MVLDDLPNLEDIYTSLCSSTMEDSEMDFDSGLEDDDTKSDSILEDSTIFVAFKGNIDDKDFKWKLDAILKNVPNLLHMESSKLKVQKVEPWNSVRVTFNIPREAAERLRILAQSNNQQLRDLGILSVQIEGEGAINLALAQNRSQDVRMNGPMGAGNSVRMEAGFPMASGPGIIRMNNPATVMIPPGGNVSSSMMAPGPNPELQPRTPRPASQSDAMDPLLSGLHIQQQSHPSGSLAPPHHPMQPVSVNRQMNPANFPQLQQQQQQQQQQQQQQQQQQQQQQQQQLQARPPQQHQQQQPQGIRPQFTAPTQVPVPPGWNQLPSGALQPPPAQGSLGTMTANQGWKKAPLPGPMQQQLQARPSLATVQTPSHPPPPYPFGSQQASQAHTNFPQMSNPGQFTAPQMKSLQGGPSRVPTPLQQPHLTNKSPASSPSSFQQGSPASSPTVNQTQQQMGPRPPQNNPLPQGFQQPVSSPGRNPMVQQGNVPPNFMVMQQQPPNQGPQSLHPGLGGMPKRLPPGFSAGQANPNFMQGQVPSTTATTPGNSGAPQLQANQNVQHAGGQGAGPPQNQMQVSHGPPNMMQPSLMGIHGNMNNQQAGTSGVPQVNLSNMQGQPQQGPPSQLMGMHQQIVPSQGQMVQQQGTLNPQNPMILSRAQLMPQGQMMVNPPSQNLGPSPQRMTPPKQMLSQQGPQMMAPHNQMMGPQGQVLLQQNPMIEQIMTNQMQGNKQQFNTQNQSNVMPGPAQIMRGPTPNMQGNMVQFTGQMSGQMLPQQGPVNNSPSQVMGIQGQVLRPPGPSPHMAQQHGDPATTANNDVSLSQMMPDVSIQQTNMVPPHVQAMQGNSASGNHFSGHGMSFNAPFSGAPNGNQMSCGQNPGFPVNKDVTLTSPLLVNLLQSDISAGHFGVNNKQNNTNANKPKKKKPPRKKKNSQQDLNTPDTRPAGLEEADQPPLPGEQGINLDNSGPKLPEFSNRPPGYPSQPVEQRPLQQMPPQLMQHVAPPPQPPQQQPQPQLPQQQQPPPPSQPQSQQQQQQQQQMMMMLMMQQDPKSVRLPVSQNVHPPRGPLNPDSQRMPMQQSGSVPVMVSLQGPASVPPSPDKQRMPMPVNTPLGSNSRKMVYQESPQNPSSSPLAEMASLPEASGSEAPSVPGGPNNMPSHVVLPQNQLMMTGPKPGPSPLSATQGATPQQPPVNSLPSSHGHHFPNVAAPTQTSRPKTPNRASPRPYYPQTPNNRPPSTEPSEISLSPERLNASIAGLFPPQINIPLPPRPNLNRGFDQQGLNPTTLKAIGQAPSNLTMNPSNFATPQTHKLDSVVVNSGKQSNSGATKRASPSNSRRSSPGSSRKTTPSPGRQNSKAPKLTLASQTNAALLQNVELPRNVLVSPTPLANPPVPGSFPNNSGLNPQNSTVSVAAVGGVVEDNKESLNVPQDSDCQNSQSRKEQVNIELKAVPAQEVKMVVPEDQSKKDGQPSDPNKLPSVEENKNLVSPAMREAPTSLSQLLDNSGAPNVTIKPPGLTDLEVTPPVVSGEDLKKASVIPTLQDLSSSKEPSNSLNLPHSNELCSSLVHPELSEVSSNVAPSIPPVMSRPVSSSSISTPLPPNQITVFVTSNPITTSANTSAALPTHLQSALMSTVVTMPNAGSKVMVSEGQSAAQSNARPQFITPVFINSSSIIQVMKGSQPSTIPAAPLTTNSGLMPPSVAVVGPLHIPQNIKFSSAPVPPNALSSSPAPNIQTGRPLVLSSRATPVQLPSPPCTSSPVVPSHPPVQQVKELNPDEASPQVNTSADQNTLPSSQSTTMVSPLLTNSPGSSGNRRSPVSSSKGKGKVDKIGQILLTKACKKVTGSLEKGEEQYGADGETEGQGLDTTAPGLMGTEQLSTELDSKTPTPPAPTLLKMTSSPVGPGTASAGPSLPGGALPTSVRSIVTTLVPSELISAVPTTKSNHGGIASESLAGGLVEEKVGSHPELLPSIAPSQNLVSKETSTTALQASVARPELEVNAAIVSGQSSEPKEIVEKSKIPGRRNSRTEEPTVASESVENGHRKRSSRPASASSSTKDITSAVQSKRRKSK
UniProt Q01196: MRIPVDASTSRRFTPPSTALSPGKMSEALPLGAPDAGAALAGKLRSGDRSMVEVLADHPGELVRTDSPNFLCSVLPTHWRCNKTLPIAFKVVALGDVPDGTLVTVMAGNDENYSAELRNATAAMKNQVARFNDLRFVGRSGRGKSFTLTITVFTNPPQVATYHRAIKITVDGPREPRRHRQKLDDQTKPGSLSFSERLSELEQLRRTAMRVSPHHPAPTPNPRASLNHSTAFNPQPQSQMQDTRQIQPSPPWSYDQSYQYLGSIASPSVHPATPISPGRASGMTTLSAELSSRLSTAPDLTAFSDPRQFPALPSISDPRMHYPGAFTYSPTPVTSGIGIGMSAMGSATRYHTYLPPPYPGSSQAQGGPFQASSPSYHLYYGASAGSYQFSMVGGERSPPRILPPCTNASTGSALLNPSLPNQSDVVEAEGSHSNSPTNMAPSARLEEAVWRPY
UniProt P05412: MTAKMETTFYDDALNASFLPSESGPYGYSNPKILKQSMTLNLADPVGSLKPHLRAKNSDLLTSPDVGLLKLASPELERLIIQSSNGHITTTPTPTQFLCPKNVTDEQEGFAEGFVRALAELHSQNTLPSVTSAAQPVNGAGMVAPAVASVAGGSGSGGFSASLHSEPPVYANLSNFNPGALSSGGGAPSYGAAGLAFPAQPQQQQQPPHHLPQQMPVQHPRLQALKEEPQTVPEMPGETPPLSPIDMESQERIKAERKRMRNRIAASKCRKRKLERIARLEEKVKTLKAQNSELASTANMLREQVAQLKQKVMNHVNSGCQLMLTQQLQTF
UniProt Q13547: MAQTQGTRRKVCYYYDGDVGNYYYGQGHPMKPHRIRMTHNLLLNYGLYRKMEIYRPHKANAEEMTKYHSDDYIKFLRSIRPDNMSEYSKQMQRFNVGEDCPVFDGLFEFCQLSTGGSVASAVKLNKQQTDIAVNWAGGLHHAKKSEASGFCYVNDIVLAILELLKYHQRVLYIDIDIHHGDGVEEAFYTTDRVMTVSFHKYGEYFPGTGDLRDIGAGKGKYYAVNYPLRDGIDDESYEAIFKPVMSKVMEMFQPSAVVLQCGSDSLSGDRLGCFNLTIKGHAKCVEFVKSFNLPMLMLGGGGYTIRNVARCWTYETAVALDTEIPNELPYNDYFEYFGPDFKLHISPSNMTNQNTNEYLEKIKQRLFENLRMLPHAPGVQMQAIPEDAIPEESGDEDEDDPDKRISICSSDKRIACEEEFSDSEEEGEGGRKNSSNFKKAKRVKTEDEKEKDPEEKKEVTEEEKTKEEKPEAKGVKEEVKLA
UniProt O75376: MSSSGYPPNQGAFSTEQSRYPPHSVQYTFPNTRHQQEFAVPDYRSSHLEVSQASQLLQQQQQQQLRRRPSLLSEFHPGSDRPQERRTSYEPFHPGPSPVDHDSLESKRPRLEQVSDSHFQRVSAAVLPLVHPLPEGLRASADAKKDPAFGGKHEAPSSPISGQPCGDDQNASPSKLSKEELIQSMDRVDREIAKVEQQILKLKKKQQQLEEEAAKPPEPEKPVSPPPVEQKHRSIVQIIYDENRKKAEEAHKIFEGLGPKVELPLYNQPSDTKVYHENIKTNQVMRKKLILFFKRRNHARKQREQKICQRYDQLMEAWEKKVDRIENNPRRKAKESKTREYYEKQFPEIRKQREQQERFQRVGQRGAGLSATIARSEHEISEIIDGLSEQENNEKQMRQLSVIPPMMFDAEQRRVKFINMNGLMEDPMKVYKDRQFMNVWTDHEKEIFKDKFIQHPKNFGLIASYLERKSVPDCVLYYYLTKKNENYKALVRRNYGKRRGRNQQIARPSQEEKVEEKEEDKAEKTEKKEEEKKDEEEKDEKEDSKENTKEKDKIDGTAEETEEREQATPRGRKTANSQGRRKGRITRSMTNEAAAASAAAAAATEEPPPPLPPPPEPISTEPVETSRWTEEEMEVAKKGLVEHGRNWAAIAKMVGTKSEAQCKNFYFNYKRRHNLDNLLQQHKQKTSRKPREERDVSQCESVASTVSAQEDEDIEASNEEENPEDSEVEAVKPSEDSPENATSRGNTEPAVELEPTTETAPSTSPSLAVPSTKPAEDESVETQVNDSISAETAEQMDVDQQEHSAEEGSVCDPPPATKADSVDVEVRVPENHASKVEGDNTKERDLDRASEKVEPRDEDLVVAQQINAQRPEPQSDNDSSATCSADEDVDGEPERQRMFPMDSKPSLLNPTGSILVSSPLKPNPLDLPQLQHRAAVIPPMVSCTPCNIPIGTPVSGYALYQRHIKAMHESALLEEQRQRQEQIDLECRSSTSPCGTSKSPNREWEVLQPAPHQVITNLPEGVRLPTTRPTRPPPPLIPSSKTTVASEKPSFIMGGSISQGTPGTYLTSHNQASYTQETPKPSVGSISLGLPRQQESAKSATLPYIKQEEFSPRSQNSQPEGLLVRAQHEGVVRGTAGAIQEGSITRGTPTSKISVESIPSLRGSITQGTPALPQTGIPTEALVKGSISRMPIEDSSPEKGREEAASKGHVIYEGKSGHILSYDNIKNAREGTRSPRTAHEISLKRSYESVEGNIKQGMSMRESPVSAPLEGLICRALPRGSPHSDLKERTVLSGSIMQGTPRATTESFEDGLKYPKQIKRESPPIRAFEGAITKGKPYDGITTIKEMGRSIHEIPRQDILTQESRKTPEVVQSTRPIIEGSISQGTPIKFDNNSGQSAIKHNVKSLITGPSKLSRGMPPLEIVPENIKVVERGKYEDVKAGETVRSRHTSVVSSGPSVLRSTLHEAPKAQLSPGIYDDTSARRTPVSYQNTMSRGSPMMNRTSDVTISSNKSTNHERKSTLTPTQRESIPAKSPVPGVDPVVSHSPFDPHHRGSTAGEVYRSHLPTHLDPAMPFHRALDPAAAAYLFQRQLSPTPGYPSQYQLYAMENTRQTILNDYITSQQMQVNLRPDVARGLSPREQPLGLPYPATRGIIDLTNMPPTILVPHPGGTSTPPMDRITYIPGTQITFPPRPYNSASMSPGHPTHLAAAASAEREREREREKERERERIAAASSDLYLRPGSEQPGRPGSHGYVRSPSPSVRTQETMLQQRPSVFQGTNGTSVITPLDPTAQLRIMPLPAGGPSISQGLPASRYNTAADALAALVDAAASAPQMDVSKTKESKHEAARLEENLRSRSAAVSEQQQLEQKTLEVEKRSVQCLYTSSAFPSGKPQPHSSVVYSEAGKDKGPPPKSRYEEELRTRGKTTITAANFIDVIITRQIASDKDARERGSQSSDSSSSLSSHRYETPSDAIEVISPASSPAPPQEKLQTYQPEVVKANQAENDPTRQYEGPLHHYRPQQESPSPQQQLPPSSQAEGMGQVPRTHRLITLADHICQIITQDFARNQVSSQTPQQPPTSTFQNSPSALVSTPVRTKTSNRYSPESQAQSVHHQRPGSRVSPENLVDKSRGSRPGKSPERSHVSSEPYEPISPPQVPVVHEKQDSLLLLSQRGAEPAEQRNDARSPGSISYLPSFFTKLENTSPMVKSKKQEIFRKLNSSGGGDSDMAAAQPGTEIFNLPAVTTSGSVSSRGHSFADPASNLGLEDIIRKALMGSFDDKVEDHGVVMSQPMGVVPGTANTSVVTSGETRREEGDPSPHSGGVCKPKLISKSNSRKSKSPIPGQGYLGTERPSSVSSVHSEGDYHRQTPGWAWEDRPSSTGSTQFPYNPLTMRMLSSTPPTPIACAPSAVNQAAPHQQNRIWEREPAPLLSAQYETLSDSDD
UniProt O15379: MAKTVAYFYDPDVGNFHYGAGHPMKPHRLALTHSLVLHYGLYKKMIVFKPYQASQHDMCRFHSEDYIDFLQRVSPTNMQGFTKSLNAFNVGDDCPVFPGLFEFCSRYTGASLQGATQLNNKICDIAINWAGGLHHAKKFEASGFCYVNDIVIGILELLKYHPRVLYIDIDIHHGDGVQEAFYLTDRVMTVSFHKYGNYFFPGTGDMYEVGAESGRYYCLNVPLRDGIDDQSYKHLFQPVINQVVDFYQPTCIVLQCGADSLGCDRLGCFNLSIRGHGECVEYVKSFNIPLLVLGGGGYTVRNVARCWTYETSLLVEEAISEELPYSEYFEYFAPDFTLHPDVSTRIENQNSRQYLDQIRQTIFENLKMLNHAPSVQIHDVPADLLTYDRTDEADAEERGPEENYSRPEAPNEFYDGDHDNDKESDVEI

In publication PMC10484118:

T1: FOXA1 (human (endogenous in NCI-H441, NCI-H3255, NCI-H2009, HCC-44)) (UniProt P55317)
T1 sequence: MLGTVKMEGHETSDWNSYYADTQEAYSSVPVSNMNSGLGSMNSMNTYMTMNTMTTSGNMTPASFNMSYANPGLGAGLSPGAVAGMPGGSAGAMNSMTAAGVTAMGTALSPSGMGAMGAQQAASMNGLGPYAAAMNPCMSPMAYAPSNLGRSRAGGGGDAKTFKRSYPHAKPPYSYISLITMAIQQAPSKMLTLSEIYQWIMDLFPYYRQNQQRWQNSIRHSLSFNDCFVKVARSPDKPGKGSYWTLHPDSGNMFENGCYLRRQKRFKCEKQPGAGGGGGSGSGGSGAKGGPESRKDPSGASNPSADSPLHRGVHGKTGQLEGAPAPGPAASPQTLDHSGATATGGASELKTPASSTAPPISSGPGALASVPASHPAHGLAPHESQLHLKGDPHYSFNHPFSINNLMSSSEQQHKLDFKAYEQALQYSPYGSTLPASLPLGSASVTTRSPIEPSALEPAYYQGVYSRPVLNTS


Biological target: T1, FOXA1 (human (endogenous in NCI-H441, NCI-H3255, NCI-H2009, HCC-44))
Assay: affinity purification with mass spectrometry; RIME: endogenous FOXA1 immunoprecipitated (Abcam ab5089) from cells cross-linked with disuccinimidyl glutarate and formaldehyde; FOXA1-dependent NSCLC lines (GR peptides in H441, HCC-44, H3255); three replicates, isotype IgG control; LC/MS-MS

Molecule	binding
NCOA6 (from UniProt Q14686 1-2063)	binds
RUNX1 (from UniProt Q01196 1-453)	binds
JUNB (protein, UniProt P17275 1-347) MCTKMEQPFYHDDSYTATGYGRAPGGLSLHDYKLLKPSLAVNLADPYRSLKAPGARGPGPEGGGGGSYFSGQGSDTGASLKLASSELERLIVPNSNGVITTTPTPPGQYFYPRGGGSGGGAGGAGGGVTEEQEGFADGFVKALDDLHKMNHVTPPNVSLGATGGPPAGPGGVYAGPEPPPVYTNLSSYSPASASSGGAGAAVGTGSSYPTTTISYLPHAPPFAGGHPAQLGLGRGASTFKEEPQTVPEARSRDATPPVSPINMEDQERIKVERKRLRNRLAATKCRKRKLERIARLEDKVKTLKAENAGLSSTAGLLREQVAQLKQKVMTHVSNGCQLLLGVKGHAF	binds

More lines, now with the values ahead:

binding	Molecule
binds	STAT3 (from UniProt P40763 1-770)
binds	JUN (from UniProt P05412 1-331)
binds	HDAC1 (from UniProt Q13547 1-482)
binds	NCOR1 (from UniProt O75376 1-2440)
binds	HDAC3 (from UniProt O15379 1-428)

These are yes or no findings as the source states them, for the method shown. In cells and extracts the contact can be indirect. Here binding means that the protein was enriched with, or labelled near, the bait; the list need not be complete.
